Results: patent US20240125768A1, “METHODS FOR MODULATING A SRC-1 CONDENSATE” (ETERN BIOPHARMA (SHANGHAI) CO., LTD., priority 2021, published 2024)
These are yes or no findings as the source states them, for the method shown. Binding seen in cells or lysates may run through a third protein. Some binding calls cover weakened binding; strength is not graded here.

By UniProt entry, the sequences of proteins in these tests, tags left out. Residues count along the entry.
UniProt Q15561: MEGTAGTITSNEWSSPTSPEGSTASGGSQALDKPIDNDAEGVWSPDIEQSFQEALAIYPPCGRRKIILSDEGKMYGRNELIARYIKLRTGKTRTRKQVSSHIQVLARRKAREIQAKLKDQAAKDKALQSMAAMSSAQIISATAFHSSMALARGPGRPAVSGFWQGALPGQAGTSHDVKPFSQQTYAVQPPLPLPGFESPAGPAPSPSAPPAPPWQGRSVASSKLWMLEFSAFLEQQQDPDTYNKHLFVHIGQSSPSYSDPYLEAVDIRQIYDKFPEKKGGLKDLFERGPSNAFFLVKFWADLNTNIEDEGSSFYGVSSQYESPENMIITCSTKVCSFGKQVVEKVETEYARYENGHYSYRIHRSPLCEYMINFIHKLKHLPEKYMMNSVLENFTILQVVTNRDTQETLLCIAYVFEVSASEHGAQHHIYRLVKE
UniProt P46937: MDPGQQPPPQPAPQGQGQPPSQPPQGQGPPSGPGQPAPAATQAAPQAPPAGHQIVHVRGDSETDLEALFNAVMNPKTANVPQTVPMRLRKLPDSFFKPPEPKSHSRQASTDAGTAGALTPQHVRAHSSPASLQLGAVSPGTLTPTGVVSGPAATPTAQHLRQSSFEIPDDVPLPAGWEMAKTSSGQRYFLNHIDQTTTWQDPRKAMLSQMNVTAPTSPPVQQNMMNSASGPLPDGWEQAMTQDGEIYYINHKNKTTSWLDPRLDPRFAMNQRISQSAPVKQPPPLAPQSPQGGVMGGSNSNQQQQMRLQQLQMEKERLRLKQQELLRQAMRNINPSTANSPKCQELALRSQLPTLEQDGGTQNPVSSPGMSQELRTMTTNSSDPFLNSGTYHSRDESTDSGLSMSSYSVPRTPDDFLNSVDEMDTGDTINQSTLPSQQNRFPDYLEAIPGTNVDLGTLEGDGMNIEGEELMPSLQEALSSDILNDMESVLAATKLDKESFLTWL
UniProt Q15788, residues 2-1441: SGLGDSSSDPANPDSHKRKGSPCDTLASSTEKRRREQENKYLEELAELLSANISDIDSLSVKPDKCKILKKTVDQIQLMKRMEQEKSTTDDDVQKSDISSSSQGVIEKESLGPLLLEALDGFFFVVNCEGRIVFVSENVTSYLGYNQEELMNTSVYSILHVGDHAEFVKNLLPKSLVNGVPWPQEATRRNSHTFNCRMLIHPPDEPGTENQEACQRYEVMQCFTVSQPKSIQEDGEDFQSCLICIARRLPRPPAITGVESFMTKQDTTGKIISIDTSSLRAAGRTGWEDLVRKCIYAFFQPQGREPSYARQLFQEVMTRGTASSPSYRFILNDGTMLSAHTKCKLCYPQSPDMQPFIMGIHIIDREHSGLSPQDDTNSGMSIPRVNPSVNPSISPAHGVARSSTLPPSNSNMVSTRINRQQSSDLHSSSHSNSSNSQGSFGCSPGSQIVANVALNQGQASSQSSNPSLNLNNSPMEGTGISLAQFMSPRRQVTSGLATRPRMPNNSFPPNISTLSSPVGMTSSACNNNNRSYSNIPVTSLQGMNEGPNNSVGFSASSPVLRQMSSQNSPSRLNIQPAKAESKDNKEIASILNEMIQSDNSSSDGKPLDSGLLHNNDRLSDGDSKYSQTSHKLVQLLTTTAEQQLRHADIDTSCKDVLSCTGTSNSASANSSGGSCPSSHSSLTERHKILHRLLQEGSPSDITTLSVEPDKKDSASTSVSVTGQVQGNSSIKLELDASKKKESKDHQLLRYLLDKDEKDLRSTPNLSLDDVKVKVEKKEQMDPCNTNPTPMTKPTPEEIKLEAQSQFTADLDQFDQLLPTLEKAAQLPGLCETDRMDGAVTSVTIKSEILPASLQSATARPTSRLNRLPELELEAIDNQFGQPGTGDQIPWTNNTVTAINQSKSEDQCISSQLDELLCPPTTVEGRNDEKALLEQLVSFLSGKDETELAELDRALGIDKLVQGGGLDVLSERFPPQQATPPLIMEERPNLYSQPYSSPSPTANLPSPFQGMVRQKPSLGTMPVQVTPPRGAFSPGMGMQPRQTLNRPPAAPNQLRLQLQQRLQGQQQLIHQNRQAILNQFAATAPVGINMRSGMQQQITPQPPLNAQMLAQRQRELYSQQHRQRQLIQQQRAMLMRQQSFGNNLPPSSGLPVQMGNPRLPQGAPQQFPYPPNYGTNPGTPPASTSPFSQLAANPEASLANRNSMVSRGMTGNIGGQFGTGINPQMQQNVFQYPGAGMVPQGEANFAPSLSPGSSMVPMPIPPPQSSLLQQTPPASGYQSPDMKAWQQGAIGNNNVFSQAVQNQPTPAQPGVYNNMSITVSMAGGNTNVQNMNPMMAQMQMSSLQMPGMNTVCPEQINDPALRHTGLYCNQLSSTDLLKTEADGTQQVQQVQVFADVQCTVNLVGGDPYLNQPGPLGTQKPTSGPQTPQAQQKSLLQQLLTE

Assays:
[1] = target: endogenous TEAD4 in SF268 cells (human) (UniProt Q15561); assay: co-immunoprecipitation under endogenous conditions, SF268 cells
[2] = target: endogenous YAP (Yes-associated protein) in SF268 cells (human) (UniProt P46937); assay: as above
[3] = target: endogenous YAP (Yes-associated protein) in SF268 cells (human) (UniProt P46937); assay: co-immunoprecipitation with anti-SRC1 antibody from SF268 lysate, immunoblot
[4] = target: endogenous TEAD4 in SF268 cells (human) (UniProt Q15561); assay: co-immunoprecipitation with anti-TEAD4 antibody from SF268 lysate, immunoblot

binding [1]: binds
binding [2]: binds
binding [3]: binds
binding [4]: binds
Substance: endogenous SRC-1 (steroid receptor coactivator-1) in SF268 cells (from UniProt Q15788 2-1441)
